Taken from: PubChem BioAssay AID1508597 (Cure First, 2020)

- Test: 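Knock-downs altering ovarian cancer cell survival with or without PARP inhibitor rucaparib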 (primary screen)
- System: human ovarian carcinoma lines grown from tumours: OCI-P5x (papillary serous) and OCI-C5x (clear cell)
- Knock-down reagent: siRNA pool against human genes, 1.25 pmol siRNA per well
- Time to read-out: 72 h or 96 h, depending on the cell culture
- Conditions: rucaparib 20 µM (about IC30) or vehicle, present until read-out
- Rucaparib or vehicle: Vehicle
- Cell line: OCI-C5x (clear cell)
- Read-out: 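ATP luminescence measured at 72 or 96 h according to the culture, then normalised and expressed as percent viability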
- Scale: viability, normalised: higher = more viable cells remaining
- Rule for the call: 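Active when normalised viability falls below 80 percent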
- Calls: active = viability under 80%; inactive = viability 80% or more
Shown is an unselected part of the about 2,100 reagents, in one setting of the screen. 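Calls flag viability under 80% in either arm, not effects specific to rucaparib; the reference for percent is not stated.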 Some reagents were tested in more than one well and are listed for each. The record does not give: the 100% reference.

CASK, technical replicate 1 | viability, normalised (%) = 72.9; Call = active
CASK, technical replicate 2 | viability, normalised (%) = 58.6; Call = active
CASK, technical replicate 3 | viability, normalised (%) = 68.9; Call = active
TP53, technical replicate 1 | viability, normalised (%) = 66; Call = active
TP53, technical replicate 1 | viability, normalised (%) = 49.9; Call = active
TP53, technical replicate 1 | viability, normalised (%) = 25.9; Call = active
TP53, technical replicate 2 | viability, normalised (%) = 71.3; Call = active
TP53, technical replicate 2 | viability, normalised (%) = 48.9; Call = active
TP53, technical replicate 2 | viability, normalised (%) = 63.5; Call = active
TP53, technical replicate 3 | viability, normalised (%) = 51.2; Call = active
TP53, technical replicate 3 | viability, normalised (%) = 56.4; Call = active
TP53, technical replicate 3 | viability, normalised (%) = 76.9; Call = active

Quoted from above (3 entries):
TP53, technical replicate 3 | viability, normalised (%) = 51.2; Call = active
TP53, technical replicate 3 | viability, normalised (%) = 56.4; Call = active
TP53, technical replicate 3 | viability, normalised (%) = 76.9; Call = active

The list goes on:
FBXO10, technical replicate 1 | viability, normalised (%) = 50.6; Call = active
FBXO10, technical replicate 2 | viability, normalised (%) = 58.1; Call = active
FBXO10, technical replicate 3 | viability, normalised (%) = 48.4; Call = active
TAOK2, technical replicate 1 | viability, normalised (%) = 100; Call = inactive
TAOK2, technical replicate 2 | viability, normalised (%) = 75.4; Call = active
TAOK2, technical replicate 3 | viability, normalised (%) = 62.2; Call = active
PLG, technical replicate 1 | viability, normalised (%) = 44.2; Call = active
PLG, technical replicate 2 | viability, normalised (%) = 36.9; Call = active
PLG, technical replicate 3 | viability, normalised (%) = 48; Call = active
